From the supplement of paper PMC8104966
This is one part of the list. This data set is noisy: repeats of one test often differ as much as different tests do.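 U2OS cells expressing ACE2 were combined with U2OS cells expressing full-length spike, and imaging quantified fusion as the fraction of nuclei displaying both cell types' fluorescent markers. Non-toxic compounds with a fusion z-score under -3, i.e., over three standard deviations below the plate's DMSO wells, are called inhibitory hits.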

The compounds below were run on U2OS ACE2 x SARS-CoV-2 spike co-culture (assay: cell-cell fusion (fraction fused) z-score vs plate DMSO control; higher = more fusion). Details: 30 µM; 5 h; toxicity class: non-toxic, passed QC.
With `Nc1nc(OCc2cc(Br)cs2)c2[nH]cnc2n1` [Lomeguatrib] the “cell-cell fusion (z-score)” value was active: -4.32. For `COC(=O)Nc1ccc(-c2nc(N3CCOCC3)c3cnn(C4CCN(C(=O)OC)CC4)c3n2)cc1`, the “cell-cell fusion (z-score)” value was inactive: 1.43. For `CN(C)CC/C=C1/c2ccccc2Sc2ccc(Cl)cc21.Cl` [Chlorprothixene hydrochloride], the “cell-cell fusion (z-score)” value was inactive: 1.64. For `CCCC(CCC)C(=O)O[C@H]1C[C@H]2CC[C@@H](C1)[N+]2(C)C.[Br-]` [Anisotropine Methylbromide], the “cell-cell fusion (z-score)” value was inactive: 1.27. With `O=C(NC(=O)c1ccccc1Cl)Nc1ccc(OC(F)(F)F)cc1` the “cell-cell fusion (z-score)” value was inactive: 2.15. For `C[C@H](CCC(=O)NCCS(=O)(=O)[O][Na])C1CCC2C3C(C[C@H](O)C21C)C1(C)CC[C@@H](O)CC1C[C@H]3O` (some centres undefined) [Sodium Taurocholate hydrate], the “cell-cell fusion (z-score)” value was inactive: 1.78. In the case of `CCc1ccc(/C=C2/SC(=S)NC2=O)cc1` [listing 1 of 2 here], the “cell-cell fusion (z-score)” value is reported as inactive: -0.128. In the case of `CC(=O)NCCCS(=O)(=O)[O-].CC(=O)NCCCS(=O)(=O)[O-].[Ca+2]` [Acamprosate calcium], the “cell-cell fusion (z-score)” value is reported as inactive: 1.03. For `COc1cc(OC)c(-c2c(OC)cc(OC)cc2OC)c(OC)c1`, the “cell-cell fusion (z-score)” value was inactive: 2.43. With `CC(C)(C)[C@]1(O)CCN2C[C@H]3c4ccccc4CCc4cccc(c43)[C@@H]2C1.Cl` [(+)-Butaclamol hydrochloride] the “cell-cell fusion (z-score)” value was inactive: 2.18. `Cc1cc(O)c2c(c1)C(=O)c1cc(O)cc(O)c1C2=O` [Emodin] was tested, and the “cell-cell fusion (z-score)” value was inactive: 2.72. With `CNCC(O)c1ccc(O)cc1` (racemic) [(±)-Synephrine] the “cell-cell fusion (z-score)” value was inactive: -1.49. `CC(OC(=O)OC1CCCCC1)OC(=O)C1=C(CSc2nnnn2CCN(C)C)CS[C@@H]2[C@H](NC(=O)Cc3csc(N)n3)C(=O)N12.Cl.Cl` (some centres undefined) [Cefotiam Hexetil Hydrochloride] was tested, and the “cell-cell fusion (z-score)” value was inactive: 0.624. In the case of `CCOC(=O)NNc1nncc2ccccc12.Cl`, the “cell-cell fusion (z-score)” value is reported as inactive: 0.796. With `CC1(C)CC2C1CCC1(C)OC1CCC2(C)O` (centres undefined) the “cell-cell fusion (z-score)” value was inactive: 1.56. For `c1ccc(-c2ccccn2)nc1` [2,2'-Bipyridyl], the “cell-cell fusion (z-score)” value was inactive: 3.7. In the case of `NCCS(=O)(=O)O` [Taurine], the “cell-cell fusion (z-score)” value is reported as inactive: 2.78. `C[N+](C)(C)CC(=O)[O-].Cl` was tested, and the “cell-cell fusion (z-score)” value was inactive: 0.998. For `CC[C@H]1C(=O)OC[C@@H]1Cc1cncn1C.O=[N+]([O-])O`, the “cell-cell fusion (z-score)” value was inactive: 1.4. With `CCOC(=O)C1=C[C@]2(CC)CCCN3CCc4c(n1c1ccccc41)[C@@H]32` [Vinpocetine] the “cell-cell fusion (z-score)” value was inactive: 1.42. `C[C@]12C=CC(=O)C=C1CC[C@@H]1C2=CC[C@]2(C)[C@@H](C(=O)CN3CCN(c4cc(N5CCCC5)nc(N5CCCC5)n4)CC3)CC[C@@H]12.O=C(O)/C=C\C(=O)O` was tested, and the “cell-cell fusion (z-score)” value was inactive: 6.04. `Cl.c1ccc2c(c1)CCCC2C1=NCCN1` (centres undefined) was tested, and the “cell-cell fusion (z-score)” value was inactive: 2.18. In the case of `Cl.Cl.N=C(NCCCCCCNC(=N)NC(=N)Nc1ccc(Cl)cc1)NC(=N)Nc1ccc(Cl)cc1` [Chlorhexidine hydrochloride], the “cell-cell fusion (z-score)” value is reported as active: -11.3. `Cl.NC1(C(=O)O)CC1` [1-Aminocyclopropanecarboxylic acid hydrochloride] was tested, and the “cell-cell fusion (z-score)” value was inactive: 2.38. `CC[N+](CC)(CC(=O)Nc1c(C)cccc1C)Cc1ccccc1.O=C([O-])c1ccccc1` was tested, and the “cell-cell fusion (z-score)” value was inactive: 1.64. For `CC(C)(CO)c1cc2cc(NC(=O)C3(c4ccc5c(c4)OC(F)(F)O5)CC3)c(F)cc2n1C[C@@H](O)CO`, the “cell-cell fusion (z-score)” value was inactive: -0.726. With `CCOC(=O)c1ncn2c1CN(C)C(=O)c1cc(F)ccc1-2` [Flumazenil] the “cell-cell fusion (z-score)” value was inactive: 2.29. With `C=C1CCC(C2CC(=O)OC2=O)C(=O)CCC2C1CC2(C)C` (centres undefined) the “cell-cell fusion (z-score)” value was inactive: 2.63. For `COc1ccc2c(c1)OCC(Cc1ccc(OC)c(OC)c1)C2=O` (centres undefined), the “cell-cell fusion (z-score)” value was inactive: 2. In the case of `NC(=O)NCCCC(N)C(=O)O` (centres undefined), the “cell-cell fusion (z-score)” value is reported as inactive: 2.56. With `O=C(O)c1ccc(S(=O)(=O)N(Cl)Cl)cc1` the “cell-cell fusion (z-score)” value was inactive: 1.85. With `CC(=O)[C@@]1(O)CC[C@H]2[C@@H]3C[C@H](C)C4=CC(=O)C=C[C@]4(C)[C@@]3(F)[C@@H](O)C[C@@]21C` [Fluoromethalone] the “cell-cell fusion (z-score)” value was inactive: 2.27. For `NS(=O)(=O)c1cc2c(cc1Cl)NC(CSCc1ccccc1)=NS2(=O)=O` [Benzthiazide], the “cell-cell fusion (z-score)” value was inactive: 1.95. With `O=C1c2cccc(O)c2C(=O)c2c(O)cccc21` the “cell-cell fusion (z-score)” value was inactive: 0.577. With `N[C@@H](Cc1c[nH]cn1)C(=O)O` [histidine] the “cell-cell fusion (z-score)” value was inactive: 0.996. For `Cn1nnnc1SCC1=C(C(=O)[O-])N2C(=O)[C@@H](NC(=O)[C@H](OC=O)c3ccccc3)[C@H]2SC1.[Na+]` [Cefamandole nafate], the “cell-cell fusion (z-score)” value was inactive: 0.958. In the case of `Oc1cc(Cl)ccc1Oc1ccc(Cl)cc1Cl` [Triclosan], the “cell-cell fusion (z-score)” value is reported as inactive: -0.652. For `NCCCCCCCCCCN` [1,10-Diaminodecane], the “cell-cell fusion (z-score)” value was inactive: 2.56. `C#Cc1cccc(Nc2ncnc3cc4c(cc23)OCCOCCOCCO4)c1` [Icotinib] was tested, and the “cell-cell fusion (z-score)” value was inactive: -2.11. For `Clc1ccc2c(c1)N=C(N1CCNCC1)c1ccccc1N2` [N-Desmethylclozapine], the “cell-cell fusion (z-score)” value was inactive: -2.63. For `C[C@H]1C(=O)CCC2[C@]3(C)CC[C@@]4(C)C5CC(C)(C)CC[C@]5(C)CC[C@]4(C)C3CC[C@@]21C` (some centres undefined), the “cell-cell fusion (z-score)” value was inactive: 2.32. For `COc1cc(C)c(/C=C/C(C)=C/C=C/C(C)=C/C(=O)O)c(C)c1C` [Acitretin], the “cell-cell fusion (z-score)” value was inactive: 2.06. For `OC(Cn1cncn1)(Cn1cncn1)c1ccc(F)cc1F`, the “cell-cell fusion (z-score)” value was inactive: 2.36. For `COC(=O)C1=C(C)NC(C)=C(C(=O)OC(C)C)C1c1cccc2nonc12` (centres undefined), the “cell-cell fusion (z-score)” value was inactive: 1.65. In the case of `CC1(C)OC(=O)NC1=O`, the “cell-cell fusion (z-score)” value is reported as inactive: 1.82. For `CC1(C)OC(=O)NC1=O` [5,5-Dimethyloxazolidine-2,4-dione], the “cell-cell fusion (z-score)” value was inactive: 1.67. For `C=CCN1C[C@@H](C)N([C@H](c2ccc(C(=O)N(CC)CC)cc2)c2cccc(OC)c2)C[C@@H]1C`, the “cell-cell fusion (z-score)” value was inactive: 3.01. For `C=CCC1(C(C)CCC)C(=O)N=C([S-])NC1=O.[Na+]` (centres undefined), the “cell-cell fusion (z-score)” value was inactive: 0.372. `Oc1ccc(Cl)c2c1CCC2` was tested, and the “cell-cell fusion (z-score)” value was inactive: -0.146. `CCOC(=O)C(C)Oc1cccc2c(=O)n(CC(=O)Nc3ccc4c(c3)OCCO4)ccc12` (centres undefined) was tested, and the “cell-cell fusion (z-score)” value was inactive: 1.13. In the case of `CC1(C)C(=O)N(CCN2CCC(C(=O)c3ccc(F)cc3)CC2)c2ccccc21.Cl` [LY-310,762 hydrochloride], the “cell-cell fusion (z-score)” value is reported as inactive: 3.55. `COc1c(C)c2c(c(O)c1C/C=C(\C)CCC(=O)OCCN1CCOCC1)C(=O)OC2` [Mycophenolate mofetil (CellCept)] was tested, and the “cell-cell fusion (z-score)” value was inactive: 1.33. For `CCc1ccc(/C=C2/SC(=S)NC2=O)cc1` [listing 2 of 2 here], the “cell-cell fusion (z-score)” value was inactive: 0.918. With `CC(/C=C/C(=O)NO)=C\[C@@H](C)C(=O)c1ccc(N(C)C)cc1` [Trichostatin A (TSA)] the “cell-cell fusion (z-score)” value was inactive: 0.75. For `C[N+](C)(C)CCOC(=O)CCC(=O)OCC[N+](C)(C)C.[Cl-].[Cl-]` [Succinylcholine chloride], the “cell-cell fusion (z-score)” value was inactive: 3.26. `NS(=O)(=O)c1cc2c(cc1C(F)(F)F)NC(Cc1ccccc1)NS2(=O)=O` (centres undefined) was tested, and the “cell-cell fusion (z-score)” value was inactive: 3.39. With `O=[N+]([O-])c1ccc(CSc2ncnc3c2ncn3[C@@H]2O[C@H](CO)[C@H](O)C2O)cc1` (stereo partly drawn) [S-(4-Nitrobenzyl)-6-thioinosine] the “cell-cell fusion (z-score)” value was inactive: 1.79. `C[C@]12CC[C@H](O)CC1=CCC1C2CC[C@]2(C)C(=O)CC[C@@H]12` (some centres undefined) was tested, and the “cell-cell fusion (z-score)” value was inactive: 2.22. `O=C(CCBr)N1CCN(C(=O)CCBr)CC1` [Pipobroman] was tested, and the “cell-cell fusion (z-score)” value was inactive: 2.38. In the case of `O=C(CCBr)N1CCN(C(=O)CCBr)CC1`, the “cell-cell fusion (z-score)” value is reported as inactive: 2.6. In the case of `Cc1c(N(C)CS(=O)(=O)[O-])c(=O)n(-c2ccccc2)n1C.[Na+]`, the “cell-cell fusion (z-score)” value is reported as inactive: 2.67. `Cl.Cn1c(CCCC(=O)O)nc2cc(N(CCCl)CCCl)ccc21` [Bendamustine hydrochloride] was tested, and the “cell-cell fusion (z-score)” value was inactive: 3.13. With `Nc1nnc(-c2cccc(Cl)c2Cl)c(N)n1` the “cell-cell fusion (z-score)” value was inactive: 2.07. For `COc1ccc(O)c(C(C)(C)C)c1`, the “cell-cell fusion (z-score)” value was inactive: 3.46. In the case of `Cl.Nc1c2c(nc3ccccc13)CCCC2`, the “cell-cell fusion (z-score)” value is reported as inactive: 2.89. With `CCN(CC)c1ncnc2c1ncn2[C@@H]1O[C@H](COP(=O)([O-])OP(=O)([O-])C(Br)(Br)P(=O)([O-])O)[C@@H](O)[C@H]1O.[Na+].[Na+].[Na+]` the “cell-cell fusion (z-score)” value was inactive: 0.774. With `Nc1ccc(S(=O)(=O)Nc2ccnn2-c2ccccc2)cc1` [Sulfaphenazole] the “cell-cell fusion (z-score)” value was inactive: 1.25. In the case of `CO[C@H]1/C=C/O[C@@]2(C)Oc3c(C)c(O)c4c(c3C2=O)C2=NC3(CCN(CC(C)C)CC3)NC2=C(NC(=O)/C(C)=C\C=C\[C@H](C)[C@H](O)[C@@H](C)[C@@H](O)[C@@H](C)[C@H](OC(C)=O)[C@@H]1C)C4=O` [Rifabutin], the “cell-cell fusion (z-score)” value is reported as inactive: 5.03. With `NS(=O)(=O)c1cc2c(cc1Cl)NC=NS2(=O)=O` [Chlorothiazide] the “cell-cell fusion (z-score)” value was inactive: 1.5. With `CCOP(=S)(OCC)Oc1ccc2c(C)c(Cl)c(=O)oc2c1` the “cell-cell fusion (z-score)” value was inactive: 3.21. With `COc1ccc2nc([S@@](=O)Cc3ncc(C)c(OC)c3C)[n-]c2c1.[Na+]` [Esomeprazole Sodium] the “cell-cell fusion (z-score)” value was inactive: 0.616. With `Cl.Nc1ccn(C2O[C@H](CO)[C@@H](O)C2(F)F)c(=O)n1` (some centres undefined) [Gemcitabine hydrochloride] the “cell-cell fusion (z-score)” value was inactive: 1.4. In the case of `Nc1ccc(C(=O)Oc2ccccc2)c(O)c1`, the “cell-cell fusion (z-score)” value is reported as inactive: 1.34. With `CC(C)CCCC(C)[C@H]1CCC2C3CC=C4C[C@@H](O)CC[C@]4(C)C3CC[C@@]21C` (some centres undefined) the “cell-cell fusion (z-score)” value was inactive: 1.96.
